For four molecules, binding results are on record in paper doi:10.1101/404863.

For test [1], the target named is T1, Drosophila Troponin I (Drosophila (endogenous in Canton-S flies)) (UniProt P36188).
T1 sequence: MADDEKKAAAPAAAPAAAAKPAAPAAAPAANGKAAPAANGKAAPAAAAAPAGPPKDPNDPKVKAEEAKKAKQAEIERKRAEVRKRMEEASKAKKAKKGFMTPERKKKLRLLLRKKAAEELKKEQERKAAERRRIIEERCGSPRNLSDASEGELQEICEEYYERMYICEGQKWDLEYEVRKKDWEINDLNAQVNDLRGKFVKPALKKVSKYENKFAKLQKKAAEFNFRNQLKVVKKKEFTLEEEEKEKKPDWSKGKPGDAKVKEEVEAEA
Briefly: co-IP.

The target of test [2] is Par-3/Bazooka (Drosophila (endogenous in Canton-S flies)). Briefly: co-IP.

Results are given in words; binding and its absence hold for the method and conditions named. Binding seen in cells or lysates may run through a third protein. A result given as binding can be weak or reduced; the word gives no strength.

Consider Par-3/Bazooka, for which the binding result in test [1] is listed as “binds”.

B1: disc large (Dlg) (protein, UniProt P31007 1-970)
chain: MPVKKQEAHRALELLEDYHARLSEPQDRALRIAIERVIRIFKSRLFQALLDIQEFYELTLLDDSKSIQQKTAETLQIATKWEKDGQAVKIADFIKSSNLNRNCAYEFNNDASSNQTNQSALNQNPIANNVSAQAQAEALSRTFKSELEEILNQRMRIESDTENAKEPTVEQQQKQQQAQQRSSRSPQQQNPQQQQGSKSRSGSQTVNGDDSWLYEDIQLERGNSGLGFSIAGGTDNPHIGTDTSIYITKLISGGAAAADGRLSINDIIVSVNDVSVVDVPHASAVDALKKAGNVVKLHVKRKRGTATTPAAGSAAGDARDSAASGPKVIEIDLVKGGKGLGFSIAGGIGNQHIPGDNGIYVTKLMDGGAAQVDGRLSIGDKLIAVRTNGSEKNLENVTHELAVATLKSITDKVTLIIGKTQHLTTSASGGGGGGLSSGQQLSQSQSQLATSQSQSQVHQQQHATPMVNSQSTEPGSRYASTNVLAAVPPGTPRAVSTEDITREPRTITIQKGPQGLGFNIVGGEDGQGIYVSFILAGGPADLGSELKRGDQLLSVNNVNLTHATHEEAAQALKTSGGVVTLLAQYRPEEYNRFEARIQELKQQAALGAGGSGTLLRTTQKRSLYVRALFDYDPNRDDGLPSRGLPFKHGDILHVTNASDDEWWQARRVLGDNEDEQIGIVPSKRRWERKMRARDRSVKFQGHAAANNNLDKQSTLDRKKKNFTFSRKFPFMKSRDEKNEDGSDQEPFMLCYTQDDANAEGASEENVLSYEAVQRLSINYTRPVIILGPLKDRINDDLISEYPDKFGSCVPHTTRPKREYEVDGRDYHFVSSREQMERDIQNHLFIEAGQYNDNLYGTSVASVREVAEKGKHCILDVSGNAIKRLQVAQLYPVAVFIKPKSVDSVMEMNRRMTEEQAKKTYERAIKMEQEFGEYFTGVVQGDTIEEIYSKVKSMIWSQSGPTIWVPSKESL
Turning to B1, the binding entry in test [2] is on record as “no binding”.

B2: atypical PKC (aPKC) (protein, UniProt A1Z9X0 1-606)
chain: MQKMPSQILNDGSSVSLNSASMNMANTPNSITVKTAYNGQIIITTINKNISYEELCYEIRNICRFPLDQPFTIKWVDEENDPCTISTKMELDEAIRLYEMNFDSQLVIHVFPNVPQAPGLSCDGEDRSIYRRGARRWRKLYRVNGHIFQAKRFNRRAFCAYCQDRIWGLGRQGFKCIQCKLLVHKKCHKLVQKHCTDQPEPLVKERAEESSDPIPVPLPPLPYEAMSGGAEACETHDHAHIVAPPPPEDPLEPGTQRQYSLNDFELIRVIGRGSYAKVLMVELRRTRRIYAMKVIKKALVTDDEDIDWVQTEKHVFETASNHPFLVGLHSCFQTPSRLFFVIEFVRGGDLMYHMQRQRRLPEEHARFYAAEISLALNFLHEKGIIYRDLKLDNVLLDHEGHIKLTDYGMCKEGIRPGDTTSTFCGTPNYIAPEILRGEDYGFSVDWWALGVLLYEMLAGRSPFDLAGASENPDQNTEDYLFQVILEKTIRIPRSLSVRAASVLKGFLNKNPADRLGCHRESAFMDIVSHPFFKNMDWELLERKQVTPPFKPRLDSDRDLANFPPEFTGEAVQLTPDDDHVIDNIDQSEFEGFEYVNPLLMSLEDCV
For the molecule B2, the binding result in test [2] is listed as “binds”.

B3: Drosophila Troponin I (protein, UniProt P36188 1-269)
chain: T1 sequence
With B3, in test [2], the binding result is reported as “binds”.
